# Data from the supplement of paper PMC8728848.
# The list shows a part of the results.
# B1: Eosinophil-derived neurotoxin (EDN) (Homo sapiens), P10153 (protein)
# chain: MVPKLFTSQICLLLLLGLLAVEGSLHVKPPQFTWAQWFETQHINMTSQQCTNAMQVINNYQRRCKNQNTFLLTTFANVVNVCGNPNMTCPSNKTRKNCHHSGSQVPLIHCNLTTPSPQNISNCRYAQTPANMFYIVACDNRDQRRDPPQYPVVPVHLDRII
# Legend:
# Assay in all cases: glycan array binding signal (z-score within array); higher = stronger binding
# Conditions in all cases: glycan notation: IUPAC condensed, linker removed
# Fuc(a1-2)Gal = target: Fuc(a1-2)Gal
# Summary of the method: (§1)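 The Consortium for Functional Glycomics database supplied 3228 glycan arrays, of which those lacking an available protein sequence were dropped. The binding signal, a within-array Z-score, was averaged across arrays of the same protein sequence and across linkers. Negative scores can be read as non-binding.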
# Fuc(a1-2)Gal(b1-3)GalNAc = target: Fuc(a1-2)Gal(b1-3)GalNAc
# Summary of the method: as §1
# [1] = target: Fuc(a1-2)Gal(b1-3)GalNAc(a1-3)[Fuc(a1-2)]Gal(b1-4)Glc
# Summary of the method: as §1
# [2] = target: Fuc(a1-2)Gal(b1-3)GalNAc(a1-3)[Fuc(a1-2)]Gal(b1-4)GlcNAc
# Summary of the method: as §1
# [3] = target: Fuc(a1-2)Gal(b1-3)GalNAc(b1-3)Gal
# Summary of the method: as §1
# [4] = target: Fuc(a1-2)Gal(b1-3)GalNAc(b1-3)Gal(a1-4)Gal(b1-4)Glc
# Summary of the method: as §1
# [5] = target: Fuc(a1-2)Gal(b1-3)GalNAc(b1-4)[Neu5Ac(a2-3)]Gal(b1-4)Glc
# Summary of the method: as §1
# Fuc(a1-2)Gal(b1-3)GlcNAc = target: Fuc(a1-2)Gal(b1-3)GlcNAc
# Summary of the method: as §1
# [6] = target: Fuc(a1-2)Gal(b1-3)GlcNAc(b1-2)Man(a1-3)[Fuc(a1-2)Gal(b1-3)GlcNAc(b1-2)Man(a1-6)]Man(b1-4)GlcNAc(b1-4)GlcNAc
# Summary of the method: as §1
# [7] = target: Fuc(a1-2)Gal(b1-3)GlcNAc(b1-2)Man(a1-3)[Fuc(a1-2)Gal(b1-3)GlcNAc(b1-2)Man(a1-6)]Man(b1-4)GlcNAc(b1-4)[Fuc(a1-6)]GlcNAc
# Summary of the method: as §1
# [8] = target: Fuc(a1-2)Gal(b1-3)GlcNAc(b1-3)Gal(b1-4)Glc
# Summary of the method: as §1
# [9] = target: Fuc(a1-2)Gal(b1-3)GlcNAc(b1-3)GalNAc
# Summary of the method: as §1
# [10] = target: Fuc(a1-2)Gal(b1-3)GlcNAc(b1-3)[Fuc(a1-3)[Gal(b1-4)]GlcNAc(b1-6)]Gal(b1-4)Glc
# Summary of the method: as §1
# [11] = target: Fuc(a1-2)Gal(b1-3)GlcNAc(b1-3)[Gal(b1-4)GlcNAc(b1-6)]Gal(b1-4)Glc
# Summary of the method: as §1
# [12] = target: Fuc(a1-2)Gal(b1-3)GlcNAc(b1-3)[Neu5Ac(a2-6)Gal(b1-4)GlcNAc(b1-6)]Gal(b1-4)Glc
# Summary of the method: as §1
# [13] = target: Fuc(a1-2)Gal(b1-3)[Fuc(a1-4)]GlcNAc
# Summary of the method: as §1
# [14] = target: Fuc(a1-2)Gal(b1-3)[Fuc(a1-4)]GlcNAc(b1-2)Man(a1-3)[Fuc(a1-2)Gal(b1-3)[Fuc(a1-4)]GlcNAc(b1-2)Man(a1-6)]Man(b1-4)GlcNAc(b1-4)GlcNAc
# Summary of the method: as §1
# [15] = target: Fuc(a1-2)Gal(b1-3)[Fuc(a1-4)]GlcNAc(b1-3)[Fuc(a1-3)[Gal(b1-4)]GlcNAc(b1-6)]Gal(b1-4)Glc
# Summary of the method: as §1
# [16] = target: Fuc(a1-2)Gal(b1-3)[Fuc(a1-4)]GlcNAc(b1-3)[Gal(b1-4)GlcNAc(b1-6)]Gal(b1-4)Glc
# Summary of the method: as §1
# Fuc(a1-2)Gal(b1-4)Glc = target: Fuc(a1-2)Gal(b1-4)Glc
# Summary of the method: as §1
# Fuc(a1-2)Gal(b1-4)Glc6S = target: Fuc(a1-2)Gal(b1-4)Glc6S
# Summary of the method: as §1
# Fuc(a1-2)Gal(b1-4)GlcNAc = target: Fuc(a1-2)Gal(b1-4)GlcNAc
# Summary of the method: as §1
# [17] = target: Fuc(a1-2)Gal(b1-4)GlcNAc(b1-2)Man(a1-3)[Fuc(a1-2)Gal(b1-4)GlcNAc(b1-2)Man(a1-6)]Man(b1-4)GlcNAc(b1-4)GlcNAc
# Summary of the method: as §1
# [18] = target: Fuc(a1-2)Gal(b1-4)GlcNAc(b1-2)Man(a1-3)[Fuc(a1-2)Gal(b1-4)GlcNAc(b1-2)Man(a1-6)]Man(b1-4)GlcNAc(b1-4)[Fuc(a1-6)]GlcNAc
# Summary of the method: as §1
# [19] = target: Fuc(a1-2)Gal(b1-4)GlcNAc(b1-2)[Fuc(a1-2)Gal(b1-4)GlcNAc(b1-4)]Man(a1-3)[Fuc(a1-2)Gal(b1-4)GlcNAc(b1-2)Man(a1-6)]Man(b1-4)GlcNAc(b1-4)GlcNAc
# Summary of the method: as §1
# [20] = target: Fuc(a1-2)Gal(b1-4)GlcNAc(b1-3)Gal(b1-4)GlcNAc
# Summary of the method: as §1
# [21] = target: Fuc(a1-2)Gal(b1-4)GlcNAc(b1-3)Gal(b1-4)GlcNAc(b1-3)Gal(b1-4)GlcNAc
# Summary of the method: as §1
# [22] = target: Fuc(a1-2)Gal(b1-4)GlcNAc(b1-3)GalNAc
# Summary of the method: as §1
# [23] = target: Fuc(a1-2)Gal(b1-4)GlcNAc(b1-3)[Fuc(a1-2)Gal(b1-4)GlcNAc(b1-6)]GalNAc
# Summary of the method: as §1
# [24] = target: Fuc(a1-2)Gal(b1-4)GlcNAc6S
# Summary of the method: as §1
binder,measurement,setting,value
B1,glycan array binding signal (z-score),Fuc(a1-2)Gal,0.276
same,glycan array binding signal (z-score),Fuc(a1-2)Gal(b1-3)GalNAc,0.114
same,glycan array binding signal (z-score),[1],0.269
same,glycan array binding signal (z-score),[2],-0.1
same,glycan array binding signal (z-score),[3],-0.44
same,glycan array binding signal (z-score),[4],-0.343
same,glycan array binding signal (z-score),[5],0.404
same,glycan array binding signal (z-score),Fuc(a1-2)Gal(b1-3)GlcNAc,0.082
same,glycan array binding signal (z-score),[6],0.954
same,glycan array binding signal (z-score),[7],-0.615
same,glycan array binding signal (z-score),[8],-0.108
same,glycan array binding signal (z-score),[9],-0.621
same,glycan array binding signal (z-score),[10],-0.037
same,glycan array binding signal (z-score),[11],-0.481
same,glycan array binding signal (z-score),[12],0.344
same,glycan array binding signal (z-score),[13],-0.414
same,glycan array binding signal (z-score),[14],0.095
same,glycan array binding signal (z-score),[15],0.248
same,glycan array binding signal (z-score),[16],-0.979
same,glycan array binding signal (z-score),Fuc(a1-2)Gal(b1-4)Glc,0.35
same,glycan array binding signal (z-score),Fuc(a1-2)Gal(b1-4)Glc6S,-0.126
same,glycan array binding signal (z-score),Fuc(a1-2)Gal(b1-4)GlcNAc,-0.101
same,glycan array binding signal (z-score),[17],0.135
same,glycan array binding signal (z-score),[18],-0.842
same,glycan array binding signal (z-score),[19],-0.611
same,glycan array binding signal (z-score),[20],-0.417
same,glycan array binding signal (z-score),[21],0.354
same,glycan array binding signal (z-score),[22],-0.376
same,glycan array binding signal (z-score),[23],0.014
same,glycan array binding signal (z-score),[24],-0.182

# Part of the list above, set out differently.
binder | measurement | setting | value
B1 | glycan array binding signal (z-score) | [12] | 0.344
same | glycan array binding signal (z-score) | [13] | -0.414
same | glycan array binding signal (z-score) | [14] | 0.095
same | glycan array binding signal (z-score) | [15] | 0.248
same | glycan array binding signal (z-score) | [16] | -0.979
same | glycan array binding signal (z-score) | Fuc(a1-2)Gal(b1-4)Glc | 0.35
same | glycan array binding signal (z-score) | Fuc(a1-2)Gal(b1-4)Glc6S | -0.126
